What follows is the remainder of the data, with few or none of the hits. Inconclusive results are not listed. Activity calls are given as the source filed them. The calls were made as follows: active = hit-call score of the fitted dose curve at least 0.9, where 1 is the maximum; inconclusive = response in the unintended direction; inactive = score below 0.9.
Experiment: ACEA_AR_agonist_AUC_viability: ACEA Biosciences xCELLigence Real-Time Cell Analysis on Androgen Receptor Agonism for Viability (AID 2283775)
How it was run: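 Read-out is area under the impedance curve at 80 h post-dose in 22Rv1 cells, with DMSO as baseline and signal loss taken as reduced viability. Compounds ran in duplicate from 100 uM final.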

SMILES	outcome
Cc1ccccc1S(=O)(=O)O	inactive
CCOC(=O)Cc1cccc2ccccc12	inactive
CO[Si](OC)(OC)c1ccccc1	inactive
C/C=C/C=C/CCCCCCCO	inactive
CCCCCCCCCCCCCCCC(=O)O	inactive
Nc1ccc(S(=O)(=O)Nc2cnc3ccccc3n2)cc1	inactive
CCCCCCCCCCCCCC(=O)O	inactive
C=C1C[C@]23C[C@@]1(O)CC[C@H]2[C@@]12C=C[C@H](O)[C@@](C)(C(=O)O1)[C@H]2[C@@H]3C(=O)O	inactive
CCC(=O)OC(C)(C)C1CC=C(C)CC1 (configuration not stated)	inactive
CN(C)c1cccc(O)c1	inactive
CCCCOc1ccc(N)cc1	inactive
O=S(=O)(O)c1ccc2ccccc2c1	inactive
CCCC1CCC(=O)CC1	inactive
C(=C(c1ccccc1)c1ccccc1)c1ccccc1	inactive
CCOc1ccc(N=Nc2ccc(C=Cc3ccc(N=Nc4ccc(OCC)cc4)cc3S(=O)(=O)O)c(S(=O)(=O)O)c2)cc1	inactive
CCCCCCCCN1CCCC1=O	inactive
C=CC(C)(O)CCC=C(C)C (configuration not stated)	inactive
O=C(c1ccccc1)C(O)c1ccccc1 (configuration not stated)	inactive
CCCCCCCCOS(=O)(=O)O	inactive
CCCCCCOC(=O)CCCCC(=O)OCCCCCC	inactive
Oc1ccccc1Cc1ccccc1O	inactive
Cn1c([N+](=O)[O-])cnc1COC(N)=O	inactive
COc1ccc(N=Nc2cc(C)c(N=Nc3ccc(S(=O)(=O)O)cc3)cc2OC)cc1	inactive
CC(C)c1ccccc1O	inactive
CCCCCCCCCCCC(=O)OCC(O)CO (configuration not stated)	inactive
CC(=O)OC[C@H]1O[C@@](COC(C)=O)(O[C@H]2O[C@H](COC(C)=O)[C@@H](OC(C)=O)[C@H](OC(C)=O)[C@H]2OC(C)=O)[C@@H](OC(C)=O)[C@@H]1OC(C)=O	inactive

Experiment: ACEA_AR_antagonist_AUC_viability: ACEA Biosciences xCELLigence Real-Time Cell Analysis on Androgen Receptor Antagonism for Viability (AID 2283776);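 also: 22Rv1 human prostate cancer cells growing on impedance electrode plates; area under impedance growth curve at 80 h after dosing as viability; hits lower the growth signal relative to DMSO meaning cytotoxicity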
How it was run: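 Viability endpoint from label-free cell-index monitoring: 22Rv1 cultures treated with an eight-point 1:4 dilution series starting at 100 uM final, AUC at 80 h fitted against DMSO.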

SMILES	outcome	AC50
Cc1ccccc1S(=O)(=O)O	inactive	
CCOC(=O)Cc1cccc2ccccc12	inactive	
CCc1cc(Cc2cc(CC)c(N)c(CC)c2)cc(CC)c1N	inactive	
CO[Si](OC)(OC)c1ccccc1	inactive	
C/C=C/C=C/CCCCCCCO	inactive	
Nc1ccc(S(=O)(=O)Nc2cnc3ccccc3n2)cc1	inactive	
CCCCCCCCCCCCCC(=O)O	inactive	
CC(C)(C)C(=O)c1ccccc1	inactive	
Cc1ccc(C(C)(C)C)cc1	inactive	
CC(C)CCCC(C)(C)O	inactive	
CCCCOc1ccc(N)cc1	inactive	
CCCCCCCCOC(=O)c1ccc(O)cc1	inactive	
CCCC1CCC(=O)CC1	inactive	
CCC(=O)/C=C/C1C(C)=CCCC1(C)C (configuration not stated)	inactive	
CCOc1ccc(N=Nc2ccc(C=Cc3ccc(N=Nc4ccc(OCC)cc4)cc3S(=O)(=O)O)c(S(=O)(=O)O)c2)cc1	inactive	
CC[C@H](NC(=O)c1cc(F)ccc1NS(=O)(=O)c1cccc2cccnc12)c1ccccc1		active: 43.2 µM
CCCCCCCCN1CCCC1=O	inactive	
C=C(C)C(=O)OCCC(C)OC(=O)C(=C)C (configuration not stated)	inactive	
CCCCCCCCOS(=O)(=O)O	inactive	
Cc1ccc(S(=O)(=O)NCl)cc1	inactive	
CCCCCCCCC	inactive	
CC(=O)c1ccc(O)cc1	inactive	
O=C(Oc1ccccc1)c1ccccc1O	inactive	
CCCCCC(C=O)=Cc1ccccc1	inactive	
C=C1C2CCC(C2)C1(C)C (configuration not stated)	inactive	
COc1ccc(N=Nc2cc(C)c(N=Nc3ccc(S(=O)(=O)O)cc3)cc2OC)cc1	inactive	
